From the supplement of paper PMC8007513 come the findings set out here.

The other results are listed elsewhere or left out. Many values rest on one well or one pass, so single values are uncertain.

The test system of this assay is Saccharomyces cerevisiae BY4743. Put plainly: growth (OD600) relative to untreated control; higher = less growth inhibition. The settings on record: compound concentration: 133 uM; 20 h. Here is the method:
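NMCCC compounds (133 uM, no IPBC) tested alone against Saccharomyces cerevisiae BY4743 in YPD, 96-well plates, starting OD600 ~0.1. Growth was read as OD600 at 20 h and expressed as % of the untreated control. Single pass.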
For the compound `CCCC(=O)N\C1=C(\C(=O)C2=CC=CC=C2N1CC)C3=CC=CS3`, the growth is 111%.
The result for `CCOC(=O)c1c(C)c(-c2ccccc2)n(CC(=O)NCCN2CCCCC2C)c1C` (centres undefined) reads 117%; that for `CCCC(=O)Nc1cc2nn(-c3ccccc3)nc2cc1Cl`, 90.6%.
`COc1ccc(C(=O)CSc2ccc3ccccc3n2)c(OC)c1` returned a growth of 89.2%.
Turning to `CCN1CCN(c2ccccc2NS(=O)(=O)c2cc(Br)cc(C(=O)O)c2F)CC1`, the growth stood at 105%.
The result for `CCN(CC)C(=O)Cn1c(S(=O)(=O)Cc2ccccc2)nc2ccccc21` reads 83.1%; that for `Cc1cc(N)n(S(=O)(=O)c2cn(C)nc2C)n1`, 108%; that for `COc1ccc(NC(=O)c2cccnc2O)cc1N1CCCCC1=O`, 77.2%.
The result for `CCOC(=O)c1[nH]nc(C(=O)c2ccccc2)c1-c1ccccc1` reads 103%; that for `CCOC(=O)C1CCN(C(=O)c2ccc(OC)c(S(=O)(=O)NC)c2)CC1`, 96.6%.
As for `COc1ccccc1NC(=O)c1ccc(NC(=O)CSc2ccccn2)cc1`, the figure is 84.2%; as for `CCOC(=O)Cc1ccc(NC(=O)NCc2c(C)nn(CC)c2C)cc1`, 88.9%; as for `CN(CC1=C(C)ON=C1C)C/2=C(\Cl)C(=O)N(/N=C2)C3=CC=C(C=N3)C(F)(F)F`, 89.5%.
The compound `CCCN(C(=O)C(=O)c1c(C)n(C)c2ccccc12)c1ccc(F)cc1` yielded a growth of 101%.
Turning to `O=C(COCC(F)(F)F)NC(c1ccccc1)c1cc2ccccc2o1` (centres undefined), the growth was 103%.
Consider `COCCN(Cc1cccs1)S(=O)(=O)c1ccc(-c2cc(C(F)(F)F)on2)s1`, for which the growth was 84.7%.
Turning to `COc1ccc(NC(=O)CCc2cccs2)cc1S(=O)(=O)N1CCOCC1`, the growth was found to be 107%.
For the compound `CC1CCN(C(=O)c2csc(S(=O)(=O)N(C)C3CCCCC3)c2)CC1`, the growth stood at 106%.
The result for `COc1ccc(S(=O)(=O)Nc2ccccc2Cl)cc1NS(=O)(=O)N1CCCCCC1` reads 102%; that for `CC(C)COc1ccccc1C(=O)Nc1ccccc1C(=O)N1CCCC1`, 98.6%; that for `Cc1nn(C)c(C)c1CNC(=O)C1C2CCC(O2)C1C(=O)O` (centres undefined), 102%.
The result for `COC(=O)c1cc(CNC(=O)CSCc2c(C)noc2C)ccc1OC` reads 95.5%.
As for `COc1ccc(C2c3cc(OC)c(OC)cc3CCN2C(=O)C(C)(C)C)cc1OC` (centres undefined), the figure is 104%; as for `Cc1ccc(-c2nc(CC(=O)OCC(=O)c3ccc[nH]3)cs2)cc1`, 103%; as for `CCOC(=O)c1c(C)[nH]c(C)c1C(=O)CN1CCc2cc(OC)c(OC)cc2C1`, 109%.
For `C[N]1N=C(C)C\2=C1C(=O)N(CC(=O)NCC3=CC=CC=C3C)\C=C2`, the growth was 88.8%.
As for `Cc1cc(C)nc(SCc2nc(-c3ccccc3)no2)n1`, the figure is 97%.
As for `COc1cccc(-c2nc(NCCO)c3ccccc3n2)c1`, the growth turned out to be 98.6%.
The compound `CCOC(=O)c1c(C)n(C)c2ccc(O)c(S(=O)(=O)c3ccc(OC)cc3)c12` returned a growth of 92.9%.
The result for `COCc1cc(O)n2nc(NC(C)=O)nc2n1` reads 106%; that for `COC(=O)c1ccc(CS(=O)(=O)N2CCCC2c2ccc(OC)c(OC)c2)cc1` (centres undefined), 111%.
For the compound `Cc1nc(C)c(CCC(=O)Nc2ccnn2Cc2ccc(C(F)(F)F)cc2)c(O)n1`, the growth stood at 122%.
Turning to `CCCCc1nnc(NC(=O)COc2ccccc2-c2ccccc2)s1`, the growth was found to be 100%.
Turning to `Cc1cc(C)n(CCNC(=O)C(=O)Nc2ccc3c(c2)nc(C(F)(F)F)n3C)n1`, the growth was determined as 91.9%.
The compound `CCCNC(=O)CN1\C(=C/C(=O)[N]2N=C(N=C12)C3=CC=CC=C3C)C` came in with a growth of 101%.
As for `CCOC(=O)c1cc(C)n(CCCN2CCOCC2)c1C`, the figure is 98.9%.
On to `CCC1Sc2ccc(S(=O)(=O)CCC(=O)Nc3ccc(C(C)=O)cc3)cc2NC1=O` (centres undefined), for which the growth came out at 108%.
In the case of `COCCN1\N=C(/C=C\C1=O)C(=O)N(CC2=C(F)C=CC=C2Cl)C3CC3`, the growth was 95.4%.
The result for `CCOC(=O)\C1=C(/C)NC(=O)N(CC(=O)NC2=CC=C(F)C=C2F)C1C3=CC=CC=C3` (centres undefined) reads 96%.
